Test results reported in patent EP4516912A1, “HERBICIDE RESISTANT PLANTS” (Eberhard-Karls-Universität Tübingen, priority 2023, dated 2025).
At least one compound was matched to its structure with a doubt left.

Target: T1, mAtDHQS1 (Arabidopsis thaliana, UniProt Q8VYV7)
T1 construct: The mature i.e. biologically relevant enzyme (mAtDHQS1) with 381 amino acids; (His)6 (C); made in house; host or cells: E. coli
T1 sequence (Q8VYV7 59-442): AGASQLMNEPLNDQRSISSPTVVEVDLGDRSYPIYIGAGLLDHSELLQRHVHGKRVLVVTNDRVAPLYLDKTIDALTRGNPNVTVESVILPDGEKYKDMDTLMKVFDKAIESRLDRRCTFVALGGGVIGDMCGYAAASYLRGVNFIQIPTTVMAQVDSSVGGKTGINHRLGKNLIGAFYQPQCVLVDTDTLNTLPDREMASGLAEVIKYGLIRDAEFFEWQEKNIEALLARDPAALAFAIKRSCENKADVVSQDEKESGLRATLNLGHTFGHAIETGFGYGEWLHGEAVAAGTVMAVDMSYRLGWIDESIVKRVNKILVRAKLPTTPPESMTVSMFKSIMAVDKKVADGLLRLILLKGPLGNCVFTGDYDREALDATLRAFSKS
Experiment: MicroScale Thermophoresis (MST) binding and competition
Conditions: RED dye-labelled mAtDHQS1 (50 nM); 500 µM ligand; Fig. 2 A/B
Description: (A) Schematic representation of mDHSQ1 and pDHQS1 both containing a C-terminal (His)6 tag for purification after heterologous expression of the recombinant proteins in E.coli. aa: amino acid. (B) Relative activity of mDHQS1 (left) and pDHQS1 (right) in the presence of the indicated concentrations of 7dSh. The activity in the absence of 7dSh was set to 1. […] (A) MST fluorescence spectrum of RED dye-labelled mAtDHQS1 (50 nM) in the absence of DAHP (blue line, marked as line 1) or in the presence of 500 µM DAHP (green line, marked as line 2). […] (B) MST fluorescence spectrum of RED dye-labelled mAtDHQS1 (50 nM) in the absence of 7dSh (blue line marked as line 1) or in the presence of 500 µM 7dSh (green line marked as line 2). […] (C) MST fluorescence spectrum of RED dye-labelled mAtDHQS1 (50 nM) in the absence of 7dSh and DAHP (blue line, marked as line 1), in the presence of 250 µM DAHP (green line marked as line 2) or 250 µM DAHP and 250 µM 7dSh (red line marked as line 3). […] (B) As in (A) but the root length was quantified. n = 10 different, lower case letters mean statistically significant differences between the data sets (ANOVA test). (C) Subcellular localization of EGFP-tagged AtDHQS1 (lines 1-1 and 1-2) or EGFP-tagged AtDHQS2 (lines 2-1 and 2-2) in chloroplasts (red fluorescence) of 3-days-old transgenic Arabidopsis plants. […]

O=C(O)C(=O)C[C@@H](O)[C@H](O)[C@H](O)COP(=O)(O)O [DAHP, 3-deoxy-D-arabino-heptulosonate-7-phosphate, reference compound]
binding to mAtDHQS1 (MST): binding to the enzyme
